## Primary screen of a compound library

Protein sequences, listed by entry. Tags and fused reporters are not part of them.
UniProt E9BF75, entry or part of it: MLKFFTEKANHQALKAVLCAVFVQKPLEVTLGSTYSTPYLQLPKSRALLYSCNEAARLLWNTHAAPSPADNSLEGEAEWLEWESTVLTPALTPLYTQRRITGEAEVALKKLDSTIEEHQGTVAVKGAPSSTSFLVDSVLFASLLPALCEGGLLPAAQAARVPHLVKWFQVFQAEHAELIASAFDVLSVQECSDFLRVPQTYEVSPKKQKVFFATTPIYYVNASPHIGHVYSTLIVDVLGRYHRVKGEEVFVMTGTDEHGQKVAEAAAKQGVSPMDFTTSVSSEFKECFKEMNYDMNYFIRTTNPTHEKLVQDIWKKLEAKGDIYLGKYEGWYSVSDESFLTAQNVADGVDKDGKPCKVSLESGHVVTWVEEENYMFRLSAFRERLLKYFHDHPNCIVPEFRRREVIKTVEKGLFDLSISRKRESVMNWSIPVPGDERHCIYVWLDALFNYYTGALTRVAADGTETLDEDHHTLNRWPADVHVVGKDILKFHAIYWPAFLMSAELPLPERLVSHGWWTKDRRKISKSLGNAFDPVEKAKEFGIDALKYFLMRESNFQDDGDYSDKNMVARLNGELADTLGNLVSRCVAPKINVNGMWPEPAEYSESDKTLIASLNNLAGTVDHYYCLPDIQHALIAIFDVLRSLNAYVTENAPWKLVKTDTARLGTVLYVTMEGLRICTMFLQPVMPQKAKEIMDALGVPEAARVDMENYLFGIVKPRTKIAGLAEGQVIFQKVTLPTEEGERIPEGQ

Data taken from ChEMBL document CHEMBL3988442, “University of Dundee, Small-Polar-MMV Screening Library” (2021).

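Methionyl-tRNA synthetase (putative), Leishmania donovani (UniProt E9BF75). Primary screen of methionyl-tRNA synthetase; the read-out is not stated. The test concentration is not given. Values are per cent inhibition. About 68,000 compounds were tested under these conditions; 0.035% (about 24) showed 50% or more at least once.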

Results are percentages, as filed. The controls that fix the scale are not given in the record; negative values are as filed. The compounds are a random part of those screened.

With CN(C)C(CNCc1nc(-c2ccsc2)no1)c1cccc(F)c1 (configuration not stated) the screen gave 5.966%. Result for O=C(Cc1ccc(F)cc1)NCCNCC1CNc2ccnn2C1 (configuration not stated) was 9.783%. For Fc1ccc(OCCCN2CCCC(Cn3cncn3)C2)cc1 (configuration not stated) the result was 11.4%. For O[C@H]1[C@H](n2cc(CN3CCCC3)nn2)c2ccccc2C12CCNCC2 the result was 21.35%. With Cc1cc(F)ccc1OC1(C(=O)O)CCN(Cc2cccnc2)CC1 the screen gave 7.534%.

Result for CNC(=O)C(NC(=O)c1c(C)noc1C)c1ccc(F)c(F)c1 (configuration not stated) was -1.648%. With COCC(=O)NCCn1nc(-c2cc(C)oc2C)ccc1=O the screen gave 13.52%. With COCC(=O)N1CCc2cccc(S(=O)(=O)N3CCOCC3)c2C1 the screen gave 7.5%. With COc1ccc(COCC(=O)NC2CCc3nc(C)cn3C2)cc1 (configuration not stated) the screen gave 23.34%. Result for Cc1cnn(C2CCCN(C(=O)c3cccc4c3OCO4)C2)c1 (configuration not stated) was 17.66%.

Result for CCOCC(=O)N1CCC(c2cc3ncccc3c(O)n2)CC1 was 10.32%. For CNc1ncc(-c2ccnn2C2CCN(C(C)=O)CC2)cn1 the result was 10.92%. COCCn1c2c(ccc1=O)CCN(Cc1ccoc1)CC2 read 15.95%. With Cn1ccnc1SC1CCc2ccccc2NC1=O (configuration not stated) the screen gave 8.499%. COC(=O)c1ccc(-c2noc(CN(CCO)Cc3cccs3)n2)cc1 gave 6.989%.

O=C(Nc1cc(F)ccc1OCC1CCCO1)c1ccc(O)nc1 (configuration not stated) read 17.36%. For N#Cc1ccccc1CNC(C(=O)N1CCOCC1)c1ccccc1 (configuration not stated) the result was 6.806%. Result for CC(NC(=O)C1=NN(C)C(=O)CC1)c1ccccc1Cl (configuration not stated) was 15.57%. CNC(=O)NC(=O)Cn1cc(-c2ccccc2)cn1 gave 22.22%. COCCN(C)C[C@H]1CC[C@@H](Cc2ccc3c(cnn3C)c2)O1 read 0.2786%.

O=C(CSC1CCc2ccccc2NC1=O)NCc1cccs1 (configuration not stated) gave 16.21%. Result for CCn1c(CN2CCN(CCO)CC2)nc2c(F)cccc21 was 17.49%. With CC(C)c1n[nH]c(C2CN(C(=O)Cn3ccccc3=O)CCO2)n1 (configuration not stated) the screen gave 23.36%. O=C(NC1CCN(Cc2ccc(F)cc2)CC1)c1ccc2c(c1)CCC2 read 16.01%. With CCN(CC1CCOC1)C(=O)Nc1ccc(N2CCOCC2)nc1 (configuration not stated) the screen gave 15.21%.

Result for CC(=O)NCc1cc2n(n1)CCN(Cc1cccc(CCN)c1)C2 was 14.5%. With CC(C)n1ccc2ccc(C(=O)NC3CN4CCC3CC4)cc21 (configuration not stated) the screen gave 7.576%. O=C(c1csc(I)c1)N1CCc2c(ncn2C2CC2)C1 gave 10.53%. OC(CNCCc1nnc2ccccn12)c1ccc(F)c(F)c1 (configuration not stated) read 15.18%. Result for Cc1cccn2c(CNC(C)CCc3ccc(O)cc3)cnc12 (configuration not stated) was 23.96%.

With CCC(CN1CCN(C)CC1)NC(=O)C1(c2cccc(F)c2)CC1 (configuration not stated) the screen gave 9.688%. With c1cc(CCNc2ccc(CC3CCNC3)cn2)ccn1 (configuration not stated) the screen gave 6.915%. CC(C)N1CCCC1c1csc(N)n1 (configuration not stated) gave 18.44%. For C[C@H](CCO)NS(=O)(=O)c1ccc(Br)cn1 the result was 11.33%. For Cc1ccc(N2CCN(c3ccccc3C)CC2C)nn1 (configuration not stated) the result was 9.749%.

CCc1nc(CN2CCCN(C(=O)C3CCC3)CC2)cs1 gave -2.089%. CCc1nnc2n1CCN(C(=O)CN(CC)CC)C2 read 4.749%. c1ccc(-c2cccc(-c3ccn(CCN4CCCCC4)n3)c2)nc1 read 4.27%. CC(C)(O)CCc1ccc(C(=O)NCCC2CCCOC2)cc1 (configuration not stated) gave 6.863%. With C[C@@H](NC(=O)c1cccnc1)c1onc(-c2ccccc2)c1C(=O)O the screen gave 4.511%.

Cc1nc2c(N3CCC(O)(Cn4ccnc4)CC3)ncnc2o1 read 11.72%. With COCC1c2nnn(C)c2CCN1C(=O)CCc1cccc(OC)c1 (configuration not stated) the screen gave 17.66%. CN1CC2(CCN(C(=O)c3cn4cccnc4n3)CC2)CC1=O gave 10.95%. For CN(C)Cc1nnc2n1CCN(Cc1cccnc1)C2 the result was 11.85%. With Cc1occc1C(=O)N1CCO[C@H]2[C@H](OCc3cccnc3)CC[C@@H]21 the screen gave 5.185%.

For reference, 5 entries once more:

With CC(C)c1n[nH]c(C2CN(C(=O)Cn3ccccc3=O)CCO2)n1 (configuration not stated) the screen gave 23.36%.
With CCOCC(=O)N1CCC(c2cc3ncccc3c(O)n2)CC1 the screen gave 10.32%.
With CC(C)(O)CCc1ccc(C(=O)NCCC2CCCOC2)cc1 (configuration not stated) the screen gave 6.863%.
With Cc1nc2c(N3CCC(O)(Cn4ccnc4)CC3)ncnc2o1 the screen gave 11.72%.
With O=C(Cc1ccc(F)cc1)NCCNCC1CNc2ccnn2C1 (configuration not stated) the screen gave 9.783%.